Laboratory results: patent US20250313619A1, “RISANKIZUMAB COMPOSITIONS” (ABBVIE INC., priority 0001, published 2025)

Assays:
[1] = Tryptic peptide map analysis of aglycosylated Fc; conditions: XIC peak areas
[2] = Glycan profiling by 2-AB labeling and HILIC-FL; conditions: for % Fucosylated Complex Oligosaccharides / % High mannose glycan: Process 4 batches
[3] = 2-AB labeling, HILIC-FL, sum of peaks

DS1-001
Aglycosylation (%) [1]: 1.4%

DS1-002
Aglycosylation (%) [1]: 1.4%

DS2-002
Aglycosylation (%) [1]: 1.5%

GMP2
% Fucosylated Complex Oligosaccharides [2]: 90.2%
% High mannose glycan [2]: 4.1%

DS4-003DS4-003
Aglycosylation (%) [1]: 1.4%

GMP4
% Fucosylated Complex Oligosaccharides [2]: 89.8%
% High mannose glycan [2]: 4.1%

GMP3
% Fucosylated Complex Oligosaccharides [2]: 90.9%
% High mannose glycan [2]: 3.6%

DS2-001
Aglycosylation (%) [1]: 1.6%

DS4-004: risankizumab Process 4 drug substance batch
Aglycosylation (%) [1]: 1.0%

DS4-003: risankizumab Process 4 drug substance batch
Peak 1 G0F-GlcNAc (A1FG0) Peak Area Percentage ([2]; 2-AB labeling, HILIC-FL): 1.8%
Peak 2 G0F (A2FG0) Peak Area Percentage ([2]; 2-AB labeling, HILIC-FL): 63.9%
Peak 3 Man 5 Peak Area Percentage ([2]; 2-AB labeling, HILIC-FL): 2.7%
Peak 4 G1F(a) (A2F[6]G1) Peak Area Percentage ([2]; 2-AB labeling, HILIC-FL): 17.0%
Peak 5 G1F(b) (A2F[3]G1) Peak Area Percentage ([2]; 2-AB labeling, HILIC-FL): 6.4%
Peak 6 Man 6 Peak Area Percentage ([2]; 2-AB labeling, HILIC-FL): 0.4%
Peak 7 G2F (A2FG2) Peak Area Percentage ([2]; 2-AB labeling, HILIC-FL): 1.8%
Peak 8 Man 7 Peak Area Percentage ([2]; 2-AB labeling, HILIC-FL): 0.5%
Fucosylated biantennary oligosaccharide (Peaks 1, 2, 4, 5, 7) Peak Area Percentage [2, 3]: 90.9%
Man 5 + 6 + 7 (Peaks 3, 6, 8) Peak Area Percentage [2, 3]: 3.6%

DS4-001: risankizumab Process 4 drug substance batch
Aglycosylation (%) [1]: 0.8%

DS2-003
Aglycosylation (%) [1]: 1.4%

GMP1
% Fucosylated Complex Oligosaccharides [2]: 89.8%
% High mannose glycan [2]: 4.0%

DS1-RS1: Process 1 reference standard [reference compound]
Aglycosylation (%) [1]: 1.2%

DS4-002: risankizumab Process 4 drug substance batch
Aglycosylation (%) [1]: 0.9%
